Source: PubChem BioAssay AID188 (DTP/NCI, 2004)
Values are animals surviving of animals treated; these mice carried no tumour. Survivors were counted at the toxicity check, usually on the fifth day, unless a day is given; later deaths do not show. Schedule codes are those of the source, taken here to give the interval after Q, in days (D) or hours (H), and the number of doses after X.

System: CD2F1 mice, nontumored, toxicity/survival
Assay: NCI In Vivo Anticancer Drug Screen. Data for tumor model Nontumored Animals (Toxicity Test) in CD2F1 (CDF1) mice
Details: schedule: Q01DX001 (ip), vehicle: saline with Tween-80

Measured: survivor count

CCOC(=O)CCC(NC(=O)c1ccc(NCCc2cnc3nc(N)[nH]c(=O)c3n2)cc1)C(=O)OCC (stereo not drawn)
2 of 2: dose: 1.0 mg/kg/injection | dose: 10.0 mg/kg/injection | dose: 100.0 mg/kg/injection
